Assay results: the supplement of paper PMC8728848
This is one part of the list.

How the values were obtained:
Experiment in all cases: glycan array binding signal (z-score within array); higher = stronger binding
Conditions in all cases: glycan notation: IUPAC condensed, linker removed
[1] = target: GalNAc(b1-3)Gal(a1-4)Gal(b1-4)GlcNAc
Outline: (§1)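 Negative Z-scores can be read as non-binding. The Z-score is calculated within each array and then averaged across arrays of one protein sequence at different concentrations or buffers and across linkers. Arrays, 3228 in all, were curated from the Consortium for Functional Glycomics database and kept only where the protein sequence was available.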

[2] = target: GalNAc(b1-3)Gal(a1-4)Gal(b1-4)GlcNAc(b1-3)Gal(b1-4)Glc
Outline: as §1

[3] = target: GalNAc(b1-3)Gal(a1-6)Gal(b1-4)Glc
Outline: as §1

GalNAc(b1-3)GalNAc = target: GalNAc(b1-3)GalNAc
Outline: as §1

GalNAc(b1-3)GlcNAc = target: GalNAc(b1-3)GlcNAc
Outline: as §1

GalNAc(b1-4)Gal(b1-4)Glc = target: GalNAc(b1-4)Gal(b1-4)Glc
Outline: as §1

GalNAc(b1-4)GlcNAc = target: GalNAc(b1-4)GlcNAc
Outline: as §1

[4] = target: GalNAc(b1-4)GlcNAc(b1-2)Man
Outline: as §1

[5] = target: GalNAc(b1-4)GlcNAc(b1-2)Man(a1-3)[GalNAc(b1-4)GlcNAc(b1-2)Man(a1-6)]Man(b1-4)GlcNAc(b1-4)GlcNAc
Outline: as §1

[6] = target: GalNAc(b1-4)GlcNAc(b1-3)GalNAc(b1-4)GlcNAc
Outline: as §1

GalNAc(b1-4)GlcNAc6S = target: GalNAc(b1-4)GlcNAc6S
Outline: as §1

GalNAc(b1-6)GalNAc = target: GalNAc(b1-6)GalNAc
Outline: as §1

GalNAc3S(b1-4)GlcNAc = target: GalNAc3S(b1-4)GlcNAc
Outline: as §1

GalNAc3S(b1-4)GlcNAc3S = target: GalNAc3S(b1-4)GlcNAc3S
Outline: as §1

[7] = target: GalNAc3S(b1-4)[Fuc(a1-3)]GlcNAc
Outline: as §1

GalNAc4S6S(b1-4)GlcNAc = target: GalNAc4S6S(b1-4)GlcNAc
Outline: as §1

GalNAc6S(b1-4)GlcNAc = target: GalNAc6S(b1-4)GlcNAc
Outline: as §1

Glc(a1-4)Glc = target: Glc(a1-4)Glc
Outline: as §1

[8] = target: Glc(a1-4)Glc(a1-4)Glc(a1-4)Glc
Outline: as §1

Glc(a1-6)Glc(a1-6)Glc = target: Glc(a1-6)Glc(a1-6)Glc
Outline: as §1

[9] = target: Glc(a1-6)Glc(a1-6)Glc(a1-6)Glc
Outline: as §1

Glc(b1-4)Glc = target: Glc(b1-4)Glc
Outline: as §1

Glc(b1-6)Glc = target: Glc(b1-6)Glc
Outline: as §1

GlcA(b1-3)Gal = target: GlcA(b1-3)Gal
Outline: as §1

GlcA(b1-3)GlcNAc = target: GlcA(b1-3)GlcNAc
Outline: as §1

GlcA(b1-6)Gal = target: GlcA(b1-6)Gal
Outline: as §1

[10] = target: GlcA3S(b1-3)Gal(b1-4)GlcNAc(b1-2)Man
Outline: as §1

[11] = target: GlcA3S(b1-3)Gal(b1-4)GlcNAc(b1-3)Gal(b1-4)Glc
Outline: as §1

[12] = target: GlcNAc(a1-3)Gal(b1-4)GlcNAc
Outline: as §1

[13] = target: GlcNAc(a1-4)Gal(b1-3)GlcNAc
Outline: as §1

[14] = target: GlcNAc(a1-4)Gal(b1-4)GalNAc
Outline: as §1

[15] = target: GlcNAc(a1-4)Gal(b1-4)GlcNAc
Outline: as §1

[16] = target: GlcNAc(a1-4)Gal(b1-4)GlcNAc(b1-3)Gal(b1-4)Glc
Outline: as §1

[17] = target: GlcNAc(a1-4)Gal(b1-4)GlcNAc(b1-3)Gal(b1-4)GlcNAc
Outline: as §1

[18] = target: GlcNAc(a1-4)Gal(b1-4)GlcNAc(b1-3)Gal(b1-4)GlcNAc(b1-3)Gal(b1-4)GlcNAc
Outline: as §1

[19] = target: GlcNAc(a1-4)Gal(b1-4)GlcNAc(b1-3)Gal(b1-4)[Fuc(a1-3)]GlcNAc(b1-3)Gal(b1-4)[Fuc(a1-3)]GlcNAc
Outline: as §1

[20] = target: GlcNAc(a1-6)Gal(b1-4)GlcNAc
Outline: as §1

[21] = target: GlcNAc(b1-2)Gal(b1-3)GalNAc
Outline: as §1

B1: Gal 12 (Homo sapiens), Q96DT0 (protein)
chain: MSQPSGGRAPGTRIYSWSCPTVMSPGEKLDPIPDSFILQPPVFHPVVPYVTTIFGGLHAGKMVMLQGVVPLDAHRFQVDFQCGCSLCPRPDIAFHFNPRFHTTKPHVICNTLHGGRWQREARWPHLALRRGSSFLILFLFGNEEVKVSVNGQHFLHFRYRLPLSHVDTLGIFGDILVEAVGFLNINPFVEGSREYPAGHPFLLMSPRLEVPCSHALPQGLSPGQVIIVRGLVLQEPKHFTVSLRDQAAHAPVTLRASFADRTLAWISRWGQKKLISAPFLFYPQRFFEVLLLFQEGGLKLALNGQGLGATSMNQQALEQLRELRISGSVQLYCVHS
[1]
  glycan array binding signal (z-score): 0.015
[2]
  glycan array binding signal (z-score): -0.621
[3]
  glycan array binding signal (z-score): -0.331
GalNAc(b1-3)GalNAc
  glycan array binding signal (z-score): -0.264
GalNAc(b1-3)GlcNAc
  glycan array binding signal (z-score): -1.02
GalNAc(b1-4)Gal(b1-4)Glc
  glycan array binding signal (z-score): 0.093
GalNAc(b1-4)GlcNAc
  glycan array binding signal (z-score): 0.685
[4]
  glycan array binding signal (z-score): -0.114
[5]
  glycan array binding signal (z-score): -0.036
[6]
  glycan array binding signal (z-score): -0.909
GalNAc(b1-4)GlcNAc6S
  glycan array binding signal (z-score): -0.136
GalNAc(b1-6)GalNAc
  glycan array binding signal (z-score): 0.172
GalNAc3S(b1-4)GlcNAc
  glycan array binding signal (z-score): -1.24
GalNAc3S(b1-4)GlcNAc3S
  glycan array binding signal (z-score): -0.326
[7]
  glycan array binding signal (z-score): -0.973
GalNAc4S6S(b1-4)GlcNAc
  glycan array binding signal (z-score): -0.099
GalNAc6S(b1-4)GlcNAc
  glycan array binding signal (z-score): -0.294
Glc(a1-4)Glc
  glycan array binding signal (z-score): -0.084
[8]
  glycan array binding signal (z-score): -0.426
Glc(a1-6)Glc(a1-6)Glc
  glycan array binding signal (z-score): 0.307
[9]
  glycan array binding signal (z-score): -0.136
Glc(b1-4)Glc
  glycan array binding signal (z-score): -1.29
Glc(b1-6)Glc
  glycan array binding signal (z-score): -0.375
GlcA(b1-3)Gal
  glycan array binding signal (z-score): -0.87
GlcA(b1-3)GlcNAc
  glycan array binding signal (z-score): 0.569
GlcA(b1-6)Gal
  glycan array binding signal (z-score): -0.421
[10]
  glycan array binding signal (z-score): -0.769
[11]
  glycan array binding signal (z-score): 0.018
[12]
  glycan array binding signal (z-score): -0.793
[13]
  glycan array binding signal (z-score): -0.407
[14]
  glycan array binding signal (z-score): 0.306
[15]
  glycan array binding signal (z-score): -0.623
[16]
  glycan array binding signal (z-score): -0.343
[17]
  glycan array binding signal (z-score): 0.578
[18]
  glycan array binding signal (z-score): -0.296
[19]
  glycan array binding signal (z-score): -0.21
[20]
  glycan array binding signal (z-score): 0.232
[21]
  glycan array binding signal (z-score): -0.498
